Source: PubChem BioAssay AID434947 (Broad Institute, 2010)
The campaign covered roughly 2,200 compounds. About 15 (0.7%) were called active.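 The calls were made as follows: active = fitted half-maximal concentration for loss of luminescence signal no more than a set limit of log units above the top tested concentration; inconclusive = flat fit with 30 to 70% signal loss, or invalid fit; inactive = half-maximal concentration above that set limit.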 The list shows a part of the results.

Experiment: ADP-Glo luciferase signal interference – biochemical, luminescence, cell-free, homogeneous, artefact control for GSK3beta inhibitor project, dose response (AID 434947);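 also: kinase-free counter screen of ADP-Glo detection reagents for GSK3beta hits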
Settings: Cell-free ADP-Glo reagents, 5 uM ADP

EC50, inactive:
CCN(CC)Cc1c(C(=O)N/N=C/c2ccco2)nnn1-c1nonc1N > 30 µM
O=C(NCc1ccccn1)c1ccc(Cn2cc(Br)cn2)o1 > 30 µM
CCc1nn(CC(=O)NCCN2CCOCC2)c(=O)c2cc3c(OC)cccc3n12 > 30 µM
Cc1ncc(/C=C2\C(=O)Nc3ccccc32)[nH]1 > 30 µM
CCOC(=O)c1cnc2ccc(F)cc2c1Nc1ccc2c(c1)OCCO2 > 30 µM
COC(=O)[C@@H]1Cc2c([nH]c3ccccc23)C2CCC(=O)N21 (stereo not given in full) > 30 µM
CCOC(=O)C1(Cc2cccc(F)c2)CCN(Cc2cn(CC)nc2C)CC1 > 30 µM
O=C(O)c1cccnc1-c1ncccc1C(=O)O > 30 µM
Nc1nc(=S)c2ncn(C3OC(CO)C(O)C3O)c2[nH]1 (stereo not given) > 30 µM
Cc1nc(Nc2ccccc2)sc1C(=O)c1ccccc1 > 30 µM
N#Cc1c(N)nc2c3c(sc(=N)c2c1N)NC(=O)CC3c1ccccc1 (stereo not given) > 30 µM
CC(=O)N1CCc2c(sc(NC(=O)CCS(=O)(=O)c3ccccc3)c2C(N)=O)C1 > 30 µM
COc1cc(/C=N\Nc2ccc([N+](=O)[O-])cc2)ccc1OCC(=O)Nc1ccc(C)c(C)c1 > 30 µM
CCCCC(=O)Nc1ncc(Br)s1 > 30 µM
Cc1cc(NC(=O)CSc2nc(-c3cccnc3)ccc2C#N)no1 > 30 µM
O=Cc1cn(CCC(=O)O)nc1-c1cccc(Cl)c1 > 30 µM
COc1ccc(OC)c(/C=N/NC(=O)CCc2c(C)n[nH]c2C)c1 > 30 µM
O=C(NCCCN1CCCCC1)c1ccc2c(c1)NC(=O)c1ccccc1S2 > 30 µM
O=C(CCC1CCN(C(=O)c2cc(C(F)(F)F)ccc2Cl)CC1)NC1CC1 > 30 µM
CCn1nc(NC(=O)C2CCCO2)c2cc3cc(C)ccc3nc21 (stereo not given) > 30 µM
c1cncc(-c2nc(NCc3cccs3)c3ccccc3n2)c1 > 30 µM
COc1cccc2cc(C(=O)N(C)C)c(=O)oc12 > 30 µM
CCN(CC)C(=O)Cn1cc(C(=O)C(=O)Nc2ccc3c(c2)OCCO3)c2ccccc21 > 30 µM
O=Cc1cn(-c2ccccc2)nc1-c1ccc(F)cc1 > 30 µM
Nc1ncnc(N(c2ccccc2)C2CCCCC2)c1[N+](=O)[O-] > 30 µM
CC(C)c1ccc(/C=N/NC(=O)c2nnn(-c3nonc3N)c2CN2CCOCC2)cc1 > 30 µM
COc1ccc(N2CCN(c3cc(C)nc4ccc(OC)cc34)CC2)cc1 > 30 µM
O=C(COc1ccc(S(=O)(=O)N2CCCC2)cc1Cl)Nc1ccc2c(c1)OCO2 > 30 µM
CC(=O)Nc1ncc2c(n1)CC(c1ccco1)CC2=O (stereo not given) > 30 µM
O=c1cc(-c2ccccc2Cl)oc2cc(O)cc(O)c12 > 30 µM
CNc1nc(N)c([N+](=O)[O-])c(NCC2CCCO2)n1 (stereo not given) > 30 µM
COc1cc(OC)c2c(-c3ccccc3)cc(=O)oc2c1 > 30 µM
CC(C)CC(=O)Nc1ncc([N+](=O)[O-])s1 > 30 µM
COc1ccc(OCCN(C)Cc2ccccc2)cc1 > 30 µM
O=c1oc2cc(O)ccc2cc1-c1ccccc1 > 30 µM
O=S(=O)(c1ccc(Br)cc1)N1CCN(c2cc(-c3ccccc3)nc3ncnn23)CC1 > 30 µM
COc1ccc2c(c1)cc1c(=O)n(CC(=O)NCCCN3CCOCC3)nc(C)n12 > 30 µM
CCCCC(=O)Nc1nc2c(OC)cc([N+](=O)[O-])cc2s1 > 30 µM
Cc1ccc(C2C3=C(CC(C)(C)CC3=O)Nc3n[nH]c(C)c32)cc1 (stereo not given) > 30 µM
N#Cc1c(Cl)nc(-c2cccnc2)nc1-c1ccccc1 > 30 µM
COc1cccc(/C=C2/Sc3ccc(C(=O)NCCN4CCCC4)cc3NC2=O)c1 > 30 µM
NCCCNc1nc(N)c([N+](=O)[O-])c(NC2CCCCC2)n1 > 30 µM
CCc1nn(CC(=O)NCCC(C)C)c(=O)c2cc3c(OC)cccc3n12 > 30 µM
CC1(C)CC(=O)C2=C(C1)Nc1ccccc1NC2c1cccs1 (stereo not given) > 30 µM
COc1cccc2cc(C(=O)NCc3ccc(C)cc3)c(=O)oc12 > 30 µM
O=C(CCSCCc1ccccn1)Nc1cc(F)ccc1F > 30 µM
C/C(CC(=O)Nc1ccc2c(c1)OCO2)=N\NC(=O)c1ccc(N)cc1 > 30 µM
O=C(O)c1ccccc1NCc1cccnc1 > 30 µM
CCOc1cc(C2C(C(=O)N3CCCCC3)=C(C)NC3=C2C(=O)CC(C)(C)C3)ccc1O (stereo not given) > 30 µM
Cc1ccc(S(=O)(=O)CC(=O)Nc2ncc([N+](=O)[O-])s2)cc1 > 30 µM
CN(C)/C=C/C(=O)c1cnc(-c2cccc(Cl)c2)s1 > 30 µM
CCn1c(SCc2c(F)cccc2Cl)nnc1-c1ccco1 > 30 µM
COc1ccc(COC(=O)c2cccc(S(=O)(=O)N3CCN(C(C)=O)CC3)c2)cc1 > 30 µM
O=Cc1ccc(Oc2nc(Cl)ncc2F)cc1 > 30 µM
N#Cc1c(-c2ccccc2)nc(SCC(=O)Nc2nnc(C(F)(F)F)s2)[nH]c1=O > 30 µM
CCN1CCN(c2cc(C)c3cc(NC(=O)c4cccc(OC)c4)ccc3n2)CC1 > 30 µM
COc1cccc(/C=C2/Sc3ccc(C(=O)NCCN4CCCCCC4)cc3NC2=O)c1 > 30 µM
O=[N+]([O-])c1c(-c2cn[nH]c2)n[nH]c1-c1cn[nH]c1 > 30 µM
COc1cccc(N=Nc2c(N)[nH][nH]c2=O)c1 > 30 µM
Cc1ccc(NC(=O)NCCCN2CCCC2=O)cc1C > 30 µM

For reference, part of the list above:
EC50, inactive:
CCn1nc(NC(=O)C2CCCO2)c2cc3cc(C)ccc3nc21 (stereo not given) > 30 µM
c1cncc(-c2nc(NCc3cccs3)c3ccccc3n2)c1 > 30 µM
